In patent US20250163186A1:
Results are given in words; binding and its absence hold for the method and conditions named. Some results given as binding are weak or reduced against the parent protein; the word gives no strength. Tags and fused reporters may be left off the sequences shown.

Amino acid sequences for entries named in this document (tags omitted). A change or cut given only in a name is not applied to a line headed by its entry. Chains listed by the source or under a name are the forms on record and can include a tag or linker.
Human IgD (AbCam, Cat. No. Ab91022) (P01880, form named): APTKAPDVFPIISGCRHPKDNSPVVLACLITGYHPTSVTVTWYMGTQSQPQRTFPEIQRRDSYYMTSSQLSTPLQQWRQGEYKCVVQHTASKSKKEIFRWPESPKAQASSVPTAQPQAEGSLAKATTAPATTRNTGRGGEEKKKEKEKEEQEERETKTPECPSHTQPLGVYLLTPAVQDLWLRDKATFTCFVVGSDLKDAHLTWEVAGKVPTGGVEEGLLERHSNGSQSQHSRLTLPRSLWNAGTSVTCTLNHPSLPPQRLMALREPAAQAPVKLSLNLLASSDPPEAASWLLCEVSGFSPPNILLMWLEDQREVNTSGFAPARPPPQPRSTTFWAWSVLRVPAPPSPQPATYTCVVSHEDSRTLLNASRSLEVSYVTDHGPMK
human IgM (Novus, NBP1-97056) (P01871, form named): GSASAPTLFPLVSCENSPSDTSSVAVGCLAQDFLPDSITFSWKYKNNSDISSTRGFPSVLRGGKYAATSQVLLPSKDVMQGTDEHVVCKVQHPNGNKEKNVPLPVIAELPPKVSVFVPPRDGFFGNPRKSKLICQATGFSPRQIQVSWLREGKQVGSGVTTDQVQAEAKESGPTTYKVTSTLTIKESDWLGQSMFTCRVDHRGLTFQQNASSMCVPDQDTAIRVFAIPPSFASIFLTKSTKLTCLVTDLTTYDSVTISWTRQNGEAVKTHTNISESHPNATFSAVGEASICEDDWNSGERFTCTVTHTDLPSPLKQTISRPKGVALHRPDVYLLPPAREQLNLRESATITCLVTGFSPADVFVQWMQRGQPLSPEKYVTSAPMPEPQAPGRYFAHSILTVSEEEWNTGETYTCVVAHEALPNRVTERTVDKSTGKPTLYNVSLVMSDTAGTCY

Columns and labels:
[1] = target: Human IgD (AbCam, Cat. No. Ab91022) (human) (UniProt P01880); assay: ELISA, plate-coated immunoglobulin
[2] = target: human IgM (Novus, NBP1-97056) (human) (UniProt P01871); assay: ELISA, plate-coated immunoglobulin

- binding [1]: binds
- binding [2]: binds
B1: cx10710, comprising IgG1 SELF Fc (antibody, V domains shown)
VH: QVQLQESGPGLVKPSETLSLTCAVSGYSITSGYSWNWIRQPPGKKLEWIGSITYDGSSNYNPSLKSRVTISRDTSKNQFSLKLSSVTAADTAVYYCARGSHYFGHWHFAVWGAGTLVTVSS
VL: DIQLTQSPSSLSASVGDRVTITCRASQSVDYDGDSYMNWYQQKPGQPPKLLIYAASYLGSEIPARFSGSGSGTDFTLTISSLQPEDFATYYCQQSHEDPYTFGAGTKLEIKR
